Results on 1 substance are retold here after paper PMC11923996.

Sequences of proteins named here, by UniProt entry; tags and fusion partners are left off. Residues count along the entry.
UniProt Q16822, residues 33-640: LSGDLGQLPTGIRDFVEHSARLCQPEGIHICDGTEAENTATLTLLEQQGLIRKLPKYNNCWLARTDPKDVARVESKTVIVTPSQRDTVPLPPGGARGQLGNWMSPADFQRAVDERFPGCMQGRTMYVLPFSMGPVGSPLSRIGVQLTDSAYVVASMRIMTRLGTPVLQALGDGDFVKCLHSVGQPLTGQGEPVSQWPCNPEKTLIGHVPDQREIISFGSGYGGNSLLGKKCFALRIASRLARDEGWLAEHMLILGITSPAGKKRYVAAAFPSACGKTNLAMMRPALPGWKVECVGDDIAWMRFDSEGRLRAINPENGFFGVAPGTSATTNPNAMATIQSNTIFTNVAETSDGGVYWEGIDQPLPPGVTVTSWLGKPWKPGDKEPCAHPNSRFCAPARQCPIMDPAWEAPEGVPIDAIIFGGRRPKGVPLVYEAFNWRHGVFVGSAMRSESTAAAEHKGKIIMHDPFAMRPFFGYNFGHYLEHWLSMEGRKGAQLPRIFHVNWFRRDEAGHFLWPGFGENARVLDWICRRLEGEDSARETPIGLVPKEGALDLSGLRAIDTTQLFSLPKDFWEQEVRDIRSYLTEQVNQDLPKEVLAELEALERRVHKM
UniProt P10809, residues 27-573: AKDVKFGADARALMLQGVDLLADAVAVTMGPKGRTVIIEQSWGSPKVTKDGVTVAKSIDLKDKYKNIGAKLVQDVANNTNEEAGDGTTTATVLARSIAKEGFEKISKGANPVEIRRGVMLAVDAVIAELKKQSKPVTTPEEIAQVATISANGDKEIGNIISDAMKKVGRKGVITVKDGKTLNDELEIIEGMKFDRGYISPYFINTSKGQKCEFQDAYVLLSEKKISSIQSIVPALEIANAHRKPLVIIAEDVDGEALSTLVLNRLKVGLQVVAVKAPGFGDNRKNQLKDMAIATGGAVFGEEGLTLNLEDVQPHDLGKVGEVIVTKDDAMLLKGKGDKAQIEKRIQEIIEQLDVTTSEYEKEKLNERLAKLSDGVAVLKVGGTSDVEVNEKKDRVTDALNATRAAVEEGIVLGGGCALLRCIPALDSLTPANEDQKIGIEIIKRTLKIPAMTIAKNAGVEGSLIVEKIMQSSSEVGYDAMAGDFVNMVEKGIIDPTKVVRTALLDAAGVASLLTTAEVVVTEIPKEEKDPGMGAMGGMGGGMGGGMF

Results are given in words; binding and its absence hold for the method and conditions named. Binding seen in cells or lysates may run through a third protein. Here binding means that the protein was enriched with, or labelled near, the bait; the list need not be complete.

The target in the test is mitochondrial phosphoenolpyruvate carboxykinase 2 (PCK2), endogenous in THLE2 cells (human (endogenous in THLE2)) (UniProt Q16822). The test can be described thus: affinity purification with mass spectrometry; proteins captured from THLE2 cell lysates with an anti-PCK2 antibody, resolved by SDS-PAGE, trypsin digest, LC-MS/MS (Q Exactive HF-X).

Turning to “heat shock protein family D member 1 (HSPD1), endogenous in THLE2 cells (from UniProt P10809 27-573)”, the binding result is “binds”.
